# Values quoted from earlier work as cited in patent US20140228318A1, “Curcumin formulations and methods for making such formulations” (Sanford Research/USD, priority 2010, published 2014).
# Conditions: cited from earlier work
smiles,measurement,setting,value
"COc1cc(/C=C/C(=O)CC(=O)/C=C/c2ccc(O)c(OC)c2)ccc1O [CUR, bis(4-hydroxy-3-methoxyphenyl)-1,6-diene-3,5-dione]",pure CUR solubility in PBS solution,PBS solution,~20 µg/mL
same,solubility in aqueous solution,aqueous solution,≈ 20 μg/mL
